Data from patent US20140178329A1.
Results are given in words; binding and its absence hold for the method and conditions named. Sequences can lack the tags named with a protein.

By UniProt entry, the sequences of proteins in these tests, tags left out. Where a name states a change or a piece, a line headed by the entry shows the natural chain unless it says otherwise.
UniProt O75888: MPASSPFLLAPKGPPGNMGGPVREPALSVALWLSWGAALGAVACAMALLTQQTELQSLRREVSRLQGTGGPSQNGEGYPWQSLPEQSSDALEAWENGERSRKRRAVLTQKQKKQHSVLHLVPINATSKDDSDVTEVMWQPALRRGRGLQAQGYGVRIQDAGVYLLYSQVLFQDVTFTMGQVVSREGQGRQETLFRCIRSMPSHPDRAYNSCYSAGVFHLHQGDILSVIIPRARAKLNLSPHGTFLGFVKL

Assays:
[1] = molecular target: T1, mouse TACI-Fc (R&D Systems) (mouse; human) (UniProt Q9ET35); assay: SPR (Biacore), FLAG-APRIL captured by anti-FLAG M2, receptor-Fc injected
T1 sequence (looked up): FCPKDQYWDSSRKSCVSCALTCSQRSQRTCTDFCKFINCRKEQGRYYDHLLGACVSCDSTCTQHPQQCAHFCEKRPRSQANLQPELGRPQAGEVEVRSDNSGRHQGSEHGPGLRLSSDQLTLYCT

[2] = molecular target: T1, mouse TACI-Fc (R&D Systems) (mouse; human); assay: SPR (Biacore), FLAG-APRIL captured on anti-FLAG M2, mouse TACI-Fc injected at 1, 5, 10 and 25 nM [murine TACI]
[3] = molecular target: T1, mouse TACI-Fc (R&D Systems) (mouse; human); assay: condition: first (most concentrated) conditioned medium of the series; receptor-binding ELISA, mouse TACI-Fc coated [BCMA selective, Ms TACI-Fc coated]

binding [1]: no binding (tested: 1-50 nM)
binding [2]: no binding (tested: 25 nM)
binding [3]: no binding
Substance: APRIL-R206E (FLAG-tagged soluble variant) (from UniProt O75888 105-250) (ligand)
